From PubChem BioAssay (Tox21)
Several values for one entry are separate records, joined by “and”; a condition that tells them apart may be missing. Identical values can stand only once. These results got no clear call from the source, so the numbers are uncertain. Unless noted, calls come from the whole dose curve; as a rule, active = well fitted curve in the direction sought with a large enough effect in the repeat runs; inconclusive = weak or mixed curves; inactive = no such curve, though single readings can be large; an effect the other way counts as inactive or inconclusive.

Amino acid sequences for entries named in this document (tags omitted).
UniProt O75469, whole entry: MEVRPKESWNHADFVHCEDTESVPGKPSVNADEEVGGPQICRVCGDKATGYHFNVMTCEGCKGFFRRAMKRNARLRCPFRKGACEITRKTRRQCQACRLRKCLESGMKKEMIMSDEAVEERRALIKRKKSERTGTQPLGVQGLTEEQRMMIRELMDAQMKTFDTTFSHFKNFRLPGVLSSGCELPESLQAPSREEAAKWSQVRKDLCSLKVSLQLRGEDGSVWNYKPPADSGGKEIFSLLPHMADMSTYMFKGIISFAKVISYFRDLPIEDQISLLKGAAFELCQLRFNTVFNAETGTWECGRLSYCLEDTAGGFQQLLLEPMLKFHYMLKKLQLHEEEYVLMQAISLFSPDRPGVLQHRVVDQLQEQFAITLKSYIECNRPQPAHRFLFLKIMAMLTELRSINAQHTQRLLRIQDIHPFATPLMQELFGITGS
UniProt P11473, whole entry: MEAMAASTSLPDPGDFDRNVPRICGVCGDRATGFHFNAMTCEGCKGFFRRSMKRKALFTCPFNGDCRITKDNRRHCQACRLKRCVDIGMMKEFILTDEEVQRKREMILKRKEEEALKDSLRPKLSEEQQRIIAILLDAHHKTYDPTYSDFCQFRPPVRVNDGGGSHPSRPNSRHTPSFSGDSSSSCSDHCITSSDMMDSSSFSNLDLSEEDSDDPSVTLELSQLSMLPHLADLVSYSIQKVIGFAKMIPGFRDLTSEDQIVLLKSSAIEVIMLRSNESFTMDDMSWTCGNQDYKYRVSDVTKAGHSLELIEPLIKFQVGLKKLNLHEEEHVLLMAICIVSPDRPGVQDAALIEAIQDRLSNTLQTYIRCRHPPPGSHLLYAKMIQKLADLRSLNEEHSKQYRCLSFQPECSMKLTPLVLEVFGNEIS
UniProt Q92731, whole entry: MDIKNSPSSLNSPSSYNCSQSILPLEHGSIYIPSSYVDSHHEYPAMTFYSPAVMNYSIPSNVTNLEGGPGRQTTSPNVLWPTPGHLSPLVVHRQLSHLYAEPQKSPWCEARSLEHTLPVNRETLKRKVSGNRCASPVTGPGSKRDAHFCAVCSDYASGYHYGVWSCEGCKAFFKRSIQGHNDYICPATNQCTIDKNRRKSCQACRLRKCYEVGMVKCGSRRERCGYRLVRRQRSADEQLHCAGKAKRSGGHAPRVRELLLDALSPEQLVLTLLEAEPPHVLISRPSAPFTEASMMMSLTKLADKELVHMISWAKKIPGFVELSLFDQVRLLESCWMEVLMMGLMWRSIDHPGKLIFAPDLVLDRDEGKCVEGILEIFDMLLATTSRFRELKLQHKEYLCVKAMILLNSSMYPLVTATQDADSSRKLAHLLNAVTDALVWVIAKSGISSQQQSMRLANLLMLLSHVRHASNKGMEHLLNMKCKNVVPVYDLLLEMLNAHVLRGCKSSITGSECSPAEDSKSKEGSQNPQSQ
UniProt P16473, whole entry: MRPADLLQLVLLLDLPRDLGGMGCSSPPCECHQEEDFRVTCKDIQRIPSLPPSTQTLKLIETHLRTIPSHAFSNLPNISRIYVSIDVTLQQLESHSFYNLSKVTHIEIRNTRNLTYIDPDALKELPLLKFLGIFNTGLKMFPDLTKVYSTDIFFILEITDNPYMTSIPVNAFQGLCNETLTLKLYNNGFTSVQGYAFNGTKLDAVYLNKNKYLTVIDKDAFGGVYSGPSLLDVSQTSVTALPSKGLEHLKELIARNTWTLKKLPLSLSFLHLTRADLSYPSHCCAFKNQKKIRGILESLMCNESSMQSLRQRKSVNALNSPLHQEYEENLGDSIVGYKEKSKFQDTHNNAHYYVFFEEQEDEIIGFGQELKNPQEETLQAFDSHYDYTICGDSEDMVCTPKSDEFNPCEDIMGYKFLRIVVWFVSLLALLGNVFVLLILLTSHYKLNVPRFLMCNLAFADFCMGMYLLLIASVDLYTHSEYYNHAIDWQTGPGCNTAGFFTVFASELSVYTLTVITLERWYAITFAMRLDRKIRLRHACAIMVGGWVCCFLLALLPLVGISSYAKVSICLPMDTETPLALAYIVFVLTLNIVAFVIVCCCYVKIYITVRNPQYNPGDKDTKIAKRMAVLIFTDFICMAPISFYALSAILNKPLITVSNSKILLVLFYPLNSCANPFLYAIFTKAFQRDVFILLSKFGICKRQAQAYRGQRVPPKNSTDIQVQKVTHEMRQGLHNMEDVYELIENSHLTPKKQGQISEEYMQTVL

How the values were obtained:
[1] = qHTS assay to identify small molecule antagonists of the thyroid receptor (TR) signaling pathway (AID 743065); conditions: GH3.TRE-Luc, T3-stimulated luciferase inhibition, 23.5 h; note: nearly all actives have a fitted effect of over 55% in size
Method in brief: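 GH3.TRE-Luc rat pituitary cells carrying two TR response elements driving luciferase were plated for 4 h, given compound plus 1 nM T3 (final), and incubated 23.5 h at 37 C. ONE-Glo luminescence measured reporter inhibition; CellTiter-Fluor fluorescence tracked cytotoxicity.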

[2] = biological target: Nuclear receptor subfamily 1 group I member 2 (Homo sapiens) (UniProt O75469); assay: Human pregnane X receptor (PXR) small molecule agonists, qHTS assay (AID 1346982); conditions: PXR-Luc HepG2, CYP3A4 luciferase reporter, 24 h; note: nearly all actives have a fitted effect of over 35% in size
Method in brief: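 After plating in 5% charcoal-stripped FBS and a 5 hr rest, PXR-Luc HepG2 cells received compounds in DMSO. Following 24 hr at 37 C, ONE-Glo was added and light output read.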

[3] = qHTS assay for small molecule agonists of the p53 signaling pathway (AID 651631; calls by dose curve; note: nearly all actives have a fitted effect of over 15% in size); conditions: HCT-116 p53RE-bla reporter, beta-lactamase FRET ratio, 16 h
Method in brief: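 HCT-116 cells carrying a beta-lactamase reporter under p53 response elements were dosed with compound for 16 h at 37 °C. LiveBLAzer B/G FRET substrate was then added for 2 h at room temperature, and fluorescence intensity was read to detect pathway agonism.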

[4] = qHTS assay for small molecule disruptors of the mitochondrial membrane potential - cell viability (AID 720634; calls by dose curve; note: nearly all actives have a fitted effect of over 20% in size); conditions: HepG2 viability, ATP luminescence (CellTiter-Glo), 1 h
Method in brief: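 Same-well counter-screen: following the MMP dye addition, CellTiter-Glo was added to 1 hr compound-treated HepG2 cells and luminescence read after 30 min at room temperature.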

[5] = qHTS assay to identify small molecule antagonists of the estrogen receptor alpha (ER-alpha) signaling pathway using the BG1 cell line - cell viability counter screen (AID 743081); conditions: BG1Luc4E2 viability, CellTiter-Fluor, 22 h;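 note: compound given together with 17beta-estradiol as the ER stimulus; nearly all actives have a fitted effect of over 45% in size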
[6] = qHTS assay for small molecule agonists of the antioxidant response element (ARE) signaling pathway - cell viability counter screen (AID 743203; calls by dose curve; note: nearly all actives have a fitted effect of over 55% in size); conditions: ARE-bla HepG2 viability, CellTiter-Glo luminescence, 16 h
Method in brief: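 Measured in the same wells as the beta-lactamase ARE reporter, this read-out is CellTiter-Glo luminescence from HepG2 ARE-bla cells given compounds for 16 hrs.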

[7] = biological target: Vitamin D3 receptor (Homo sapiens) (UniProt P11473); assay: qHTS assay to identify small molecule antagonists of the vitamin D receptor (VDR) signaling pathway (AID 743223; active = well fitted inhibition curve with a large enough effect in the signal ratio in the repeat runs, not every such curve was filed as active; inconclusive = weak or mixed curves, or effect the other way; inactive = no such curve, though single readings can be large or run the other way; the % refers to the signal ratio); conditions: VDR-UAS-bla HEK293T, beta-lactamase FRET ratio, 16 h
Method in brief: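 VDR-bla cells were treated with compound plus 3 nM final 1alpha,25-dihydroxyvitamin D3 for 16 h at 37C. Beta-lactamase reporter read by B/G FRET substrate fluorescence after 2 h at room temperature. qHTS format.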

[8] = qHTS assay to identify small molecule agonists of the endoplasmic reticulum stress response signaling pathway - cell viability counter screen (AID 1159517; calls by dose curve; note: nearly all actives have a fitted effect of over 50% in size); conditions: ESRE-bla HeLa viability, CellTiter-Glo luminescence, 5 h
Method in brief: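 Cpd-treated ESRE-bla HeLa (5 hr, 37 C) → LiveBLAzer 2 hr RT → CellTiter-Glo 30 min RT → luminescence.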

[9] = qHTS assay to identify small molecule antagonists of the estrogen related receptor signaling pathway with the pleiotropic PPARgamma coactivator (PGC) from Tox21 10K library - cell viability counter screen (AID 1224840; active = well fitted cell-killing curve with a large enough effect in the repeat runs, not every such curve was filed as active; inconclusive = weak or mixed curves, or effect the other way; inactive = no such curve, though single readings can be large or run the other way; note: nearly all actives have a fitted effect of over 40% in size); conditions: PGC/ERR reporter cells viability, CellTiter-Fluor, 17.5 h
Method in brief: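 Viability counter screen, PGC/ERR cells: 17.5 h compound exposure at 37 C, CellTiter-Fluor fluorescence endpoint.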

[10] = qHTS assay to identify small molecule agonists of the hypoxia (HIF-1) signaling pathway (AID 1224846; active = well fitted activation curve with a large enough effect in the signal ratio in the repeat runs, not every such curve was filed as active; inconclusive = weak or mixed curves; the % refers to the signal ratio); conditions: HRE-bla ME-180 cells, beta-lactamase ratio, 17 h
Method in brief: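 In ME-180 cells bearing an HRE-bla construct, 17 h treatment with DMSO-dissolved compounds at 37C was followed by CCF4-AM loading to quantify reporter induction.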

[11] = qHTS RealTime-Glo MT Cell Viability Assay in HepG2 cells - 8 hour (AID 1224873); conditions: RealTime-Glo luminescence; note: nearly all actives have a fitted effect of over 55% in size
Method in brief: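 HepG2 cells mixed with RealTime-Glo MT reagents (NanoLuc plus cell-permeant prosubstrate) were seeded at 600 cells/well, incubated 5 h at 37 C/5% CO2, then pinned with compounds in DMSO; nonlytic luminescence tracked viability during 40 h treatment.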

[12] = qHTS assay to identify small molecule antagonists of the androgen receptor (AR) signaling pathway using the MDA cell line in the presence of 0.5 nM R1881 - cell viability counter screen (AID 1259242); conditions: MDA-kb2 viability, CellTiter-Fluor protease fluorescence, 16 h; note: nearly all actives have a fitted effect of over 45% in size
Method in brief: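 Human breast carcinoma MDA-kb2 cells, cultured without CO2, receive compounds alongside 0.5 nM (final) R1881 agonist. After 16 hr at 37C, viability is taken as live-cell protease signal.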

[13] = biological target: Estrogen receptor beta (Homo sapiens) (UniProt Q92731); assay: qHTS assay to identify small molecule antagonists of the estrogen receptor beta (ER-beta) signaling pathway (AID 1259378; active = well fitted inhibition curve with a large enough effect in the signal ratio in the repeat runs, not every such curve was filed as active; inconclusive = weak or mixed curves, or effect the other way; inactive = no such curve, though single readings can be large or run the other way; the % refers to the signal ratio); conditions: ER-beta-UAS-bla HEK293T, beta-lactamase FRET ratio, 16 h
Method in brief: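 ER-beta-UAS-bla HEK293T (GripTite) cells in 2% charcoal-stripped FBS medium were preincubated 6 hr at 37C, dosed with compound, then stimulated with 1 nM E2 (final) for 16 hr; beta-lactamase reporter read by B/G FRET fluorescence after 2 hr substrate loading.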

[14] = qHTS assay to identify small molecule antagonists of the estrogen receptor beta (ER-beta) signaling pathway - cell viability counter screen (AID 1259382); conditions: ER-beta-UAS-bla HEK293T viability, CellTiter-Glo luminescence, 16 h; note: nearly all actives have a fitted effect of over 55% in size
Method in brief: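 HEK293T ER-beta-UAS-bla, 2% charcoal-stripped FBS; compounds + 1nM E2 16 hr 37C; CellTiter-Glo luminescence, 30 min RT.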

[15] = biological target: Thyrotropin receptor (Homo sapiens) (UniProt P16473); assay: qHTS assay to identify small molecule antagonists of the thyroid stimulating hormone receptor (TSHR) signaling pathway (AID 1259385; calls by dose curve; note: nearly all actives have a fitted effect of over 20% in size); conditions: TSHR-HEK293 cAMP HTRF, TSH-stimulated antagonist mode
[16] = qHTS assay to identify small molecule agonists of the TGF-beta/Smad signaling pathway - cell viability counter screen (AID 1346829); conditions: SBE-bla HEK293T viability, CellTiter-Glo luminescence, 5 h; note: nearly all actives have a fitted effect of over 45% in size
Method in brief: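 CellTiter-Glo luminescence readout; SBE-bla HEK 293T cells, overnight plating, compound 5 hr at 37 C/5% CO2, then bla substrate 2 hr RT, then CellTiter-Glo 30 min RT.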

Measured: Potency
Potency is the fitted concentration of half-maximal effect.

COc1ccc([N+](=O)[O-])cc1[N+](=O)[O-]
inconclusive: [1] 30.6 µM | [2] 30.6 µM

O=C1C2CC=CCC2C(=O)N1SC(Cl)(Cl)C(Cl)Cl (stereo unspecified)
inconclusive: [3] 30.9 µM and 19.3 µM | [4] 69.1 µM and 68.6 µM | [5] 69.1 µM and 68.6 µM | [6] 6.91 µM | [7] 24.7 µM and 2.45 µM | [8] 12.4 µM | [9] 21.8 µM | [10] 4.93 µM and 2.45 µM | [11] 49.3 µM | [12] 48.9 µM | [13] 8.63 µM | [14] 13.8 µM | [15] 69.1 µM | [16] 34.9 µM
